Measurements reported in PubChem BioAssay AID652272 (Drosophila RNAi Screening Center, 2013).
In all, the deposit lists about 21,000 reagents; shown is a random part of those that have a named target and a result. Of all reagents, 503 (2.4%) were called active. 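Raw plate light values, not normalised; calls rest on replicate z-scores that were not deposited; hits include reporter decreases as well as increases.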 A plus sign joins genes that one reagent is predicted to hit. Not stated in the record: the amount of reagent, the time to read-out.

- Screen: 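Genes whose knock-down decreases or increases Hedgehog reporter output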 (primary screen)
- Cell system: Drosophila clone 8 (Cl8) cells
- Reagent: long dsRNA against Drosophila genes
- Read-out: 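Plate reader light from a firefly reporter under a ptc promoter fragment that responds to Hedgehog, with Renilla light as transfection reference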
- Direction: firefly Hh reporter signal: higher = more ptc reporter light; Renilla reference signal: higher = more Renilla control light
- Active means: 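Hit when the z-score averaged over two replicates is under -2 or over +3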
- Calls: active = hit: reporter lowered or raised; inactive = not a hit

no.	gene	DRSC id	firefly Hh reporter signal, replicate 1	firefly Hh reporter signal, replicate 2	firefly Hh reporter signal, replicate 3	Renilla reference signal, replicate 1	Renilla reference signal, replicate 2	outcome
1	ND-75	DRSC18686	89061	3.36e5		2347	9874	inactive
2	CG10459	DRSC05991	1.39e5	77238		3381	7468	inactive
3	Ranbp21	DRSC19447	1.00e5	72627		1996	1755	inactive
4	CG4995	DRSC02801	1.67e5	80499		6371	3533	inactive
5	CG11414	DRSC04110	82900	39424		3409	1834	inactive
6	ATP8 (retired record)	DRSC21277	98683	3.39e5		2115	13936	inactive
7	gammaTub23C	DRSC00820	78404	78068		4089	3776	inactive
8	Vamp7	DRSC06599	1.20e5	47264		2282	3153	inactive
9	lncRNA:yar	DRSC17679	6.89e5	8.63e5	2.65e5	33060	5767	inactive
10	Oatp26F	DRSC02149	77559	45723		1915	4828	inactive
11	Oatp26F	DRSC02272	74770	39493		1957	4144	inactive
12	Oatp26F	DRSC02695	80208	55159		1769	5504	inactive
13	CG33110	DRSC14694	2.03e5	27029		15889	1360	active
14	CG33110	DRSC16137	6.11e5	1.12e5		32192	3222	inactive
15	CG42819	DRSC02264	1.04e5	67945		2880	4731	inactive
16	TyrR	DRSC13259	51510	2.44e5		10489	5800	inactive
17	TyrR	DRSC16242	5.53e5	1.39e5		23297	3507	inactive
18	lncRNA:CR43270	DRSC11575	2.26e5			5248		inactive
19	ERR	DRSC10840	90172	59440		4116	2824	inactive
20	CG30325	DRSC05685	1.37e5	3.20e5		3809	12224	inactive
21	CG7536	DRSC20050	1.11e5	68522		2672	2059	inactive
22	CG16815	DRSC02521	1.69e5	51641		3832	3905	inactive
23	CG14190	DRSC19545	85275	2.08e5		1881	9908	inactive
24	CG8641	DRSC11028	75520	77991		7882	5165	inactive
25	insb	DRSC06995	66344	56280		1529	3696	inactive
26	CG34195	DRSC06909	84102	41659		2357	2893	inactive
27	CG15905	DRSC06591	1.13e5	48644		3072	4113	inactive
28	l(2)37Cb	DRSC02095	55032	95544		2705	3888	inactive
29	Scr	DRSC12604	34162	38285		1571	1648	inactive
30	CG31937	DRSC00514	1.34e5	1.33e5		5751	4827	inactive
31	ND-15	DRSC00311	1.83e5	96496		5399	3857	inactive
32	Idgf1	DRSC03349	90989	65895		3836	2970	inactive
33	CG13527	DRSC04169	90429	60242		1936	5808	inactive
34	CG34310	DRSC00943	6.22e5	2.17e5		30219	9094	inactive
35	CG11269	DRSC04094	93338	62517		2449	5718	inactive
36	CG12075	DRSC17801	88565	75479		2051	2004	inactive
37	mRpS21	DRSC12965	60282	3.33e5		12662	6730	inactive
38	Cad88C	DRSC15486	71914	72425		2593	1901	inactive
39	CG42827	DRSC16116	5.70e5	4.82e5	96724	29062	2528	inactive
40	Eato	DRSC01891	1.25e5	1.26e5		4743	4976	inactive
41	Eato	DRSC03061	74867	37863		2145	3385	inactive
42	Mob4	DRSC04993	49523	30216		2571	1478	inactive
43	Ets96B	DRSC16127	4.14e5	95821		21463	2742	inactive
44	Rab9Db + Rab9Fa	DRSC18445	64899	2.44e5		1392	9128	inactive
45	CG7029	DRSC16177	83120	1.02e5		3655	3556	inactive
46	Tao	DRSC19573	1.76e5	6.24e5	1.36e5	3312	32982	inactive
47	Tao	DRSC19574	1.44e5	6.43e5	2.51e5	5588	5248	inactive
48	CG14551	DRSC14894	5.36e5	1.22e5		27424	4012	inactive
49	GNBP3	DRSC11170	48147	50786		4193	3649	inactive
50	CG1317	DRSC08305	98468	80765		4816	2954	inactive
51	CG3226	DRSC18296	1.02e5	97076		1649	1757	inactive
52	Bdbt	DRSC15218	4.43e5	90914		27504	448	inactive
53	lds	DRSC16988	91381	86732		3384	5035	inactive
54	CG32170	DRSC09452	1.93e5			2977		inactive
55	CG8136	DRSC16385	82854	1.33e5		3531	7324	inactive
56	ssp	DRSC10252	1.31e5	69491		5472	3289	inactive
57	CG18507	DRSC01334	5.58e5	2.70e5		25427	9773	inactive
58	CG18507	DRSC01914	1.34e5	69607		3405	6208	inactive
59	Dhc98D	DRSC16645	96032	1.01e5		2825	3696	inactive
60	His4r	DRSC16703	22803	33136		851	886	inactive
61	CG7509	DRSC08596	1.17e5	54144		4148	2155	inactive
62	NFAT	DRSC18991	4.19e5	1.07e5		28407	3729	inactive
63	NFAT	DRSC19393	1.13e5	3.19e5		3505	13248	inactive
64	CG32563	DRSC19934	63977	2.36e5		1728	8946	inactive
65	cl	DRSC02118	1.20e5	98320		4713	3954	inactive
66	CG13716	DRSC08325	79236	5.82e5	69318	8464	29013	inactive
67	CG31538	DRSC12059	1.79e5			3355		inactive
68	Wdr62	DRSC00081	7.38e5	3.39e5		37329	13584	inactive
69	Wdr62	DRSC00082	7.74e5	2.76e5		41654	11792	inactive
70	Wdr62	DRSC00701	92673	33510		3703	1480	inactive
71	ND6 (retired record)	DRSC21271	1.85e5	8.76e5	3.52e5	6038	5376	inactive
72	Lgr4	DRSC18969	4.13e5	1.38e5		22747	3232	inactive
73	Lgr4	DRSC18970	3.91e5	2.51e5		23162	5552	inactive
74	Lgr4	DRSC19884	73200	2.63e5		2183	9431	inactive

Targets listed so far whose target name begins with T or t:
gene	DRSC id	firefly Hh reporter signal, replicate 1	firefly Hh reporter signal, replicate 2	firefly Hh reporter signal, replicate 3	Renilla reference signal, replicate 1	Renilla reference signal, replicate 2	outcome
TyrR	DRSC13259	51510	2.44e5		10489	5800	inactive
TyrR	DRSC16242	5.53e5	1.39e5		23297	3507	inactive
Tao	DRSC19573	1.76e5	6.24e5	1.36e5	3312	32982	inactive
Tao	DRSC19574	1.44e5	6.43e5	2.51e5	5588	5248	inactive
